Results from US20100278838A1, “EPHA2 MONOCLONAL ANTIBODIES AND METHODS OF USE THEREOF” (MEDIMMUNE, LLC, priority 2002, published 2010).

System: EphA2 on transformed MDA-MB-231 cells
Experiment: Immunofluorescence binding to transformed cells
Format: cell-based
Settings: 10 μg/ml, 4° C., 30 min; MDA-MB-231 versus MCF-10A

Row | Molecule | Binding to EphA2 on transformed versus non-transformed cells
1 | EA2: EphA2 agonistic monoclonal antibody; ATCC deposit no. PTA-4380; co-pending application Ser. No. 10/436,783; VL SEQ ID NO:33, VH SEQ ID NO:37 (antibody, listed as Homo Sapiens, V domains shown) VH: DVKLVESGGGLVKPGGSLKLSCAASGFTFSSYTMSWVRQTPEKRLEWVATISSGGTYTYYPDSVKGRFTISRDNAKNTLYLQMSSLKSEDTAMYYCTREAIFTYWGQGTLVTVSA VL: DIKMTQSPSSMYASLGERVTITCKASQDINNYLSWFQQKPGKSPKTLIYRANRLVDGVPSRFSGSGSGQDYSLTISSLEYEDMGIYYCLKYDEFPYTFGGGTKLEIK | preferentially binds EphA2 on transformed cells; also recorded: preferentially binds cancer cells
2 | Eph099B-233.152: EphA2 monoclonal antibody; hybridoma ATCC PTA-5194; VL SEQ ID NO:17, VH SEQ ID NO:21 (antibody, listed as Homo sapiens, V domains shown) VH: EVKLVESGGGLVQPGGSLSLSCAASGFTFTDYSMNWVRQPPGKALEWLGFIRNKANDYTTEYSASVKGRFTISRDNSQSILYLQMNALRAEDSATYYCVRYPRYHAMDSWGQGTSVTVSS VL: DIVLTQSPATLSVTPGDSVNLSCRASQSISNNLHWYQQKSHESPRLLIKYVFQSISGIPSRFSGSGSGTDFTLSINSVETEDFGMYFCQQSNSWPLTFGAGTKLELK | binds EphA2 expressed on both transformed and non-transformed cells

Entries after “also recorded” stand apart in the source; their conditions may differ.
